Results: PMC11897192
Results are given in words; binding and its absence hold for the method and conditions named. In cells and extracts the contact can be indirect. Here binding means that the protein was enriched with, or labelled near, the bait; the list need not be complete. For some assays here: A no says only that the protein was not detected with the bait. Where a sequence is shown, tags or fusion partners need not be part of it.

How the values were obtained:
[1] = target: T1, TurboID-Flag-ZBTB20 (UniProt Q8K0L9); experiment: proximity labelling; as above, chondrocytes treated with IL-1β
T1 sequence: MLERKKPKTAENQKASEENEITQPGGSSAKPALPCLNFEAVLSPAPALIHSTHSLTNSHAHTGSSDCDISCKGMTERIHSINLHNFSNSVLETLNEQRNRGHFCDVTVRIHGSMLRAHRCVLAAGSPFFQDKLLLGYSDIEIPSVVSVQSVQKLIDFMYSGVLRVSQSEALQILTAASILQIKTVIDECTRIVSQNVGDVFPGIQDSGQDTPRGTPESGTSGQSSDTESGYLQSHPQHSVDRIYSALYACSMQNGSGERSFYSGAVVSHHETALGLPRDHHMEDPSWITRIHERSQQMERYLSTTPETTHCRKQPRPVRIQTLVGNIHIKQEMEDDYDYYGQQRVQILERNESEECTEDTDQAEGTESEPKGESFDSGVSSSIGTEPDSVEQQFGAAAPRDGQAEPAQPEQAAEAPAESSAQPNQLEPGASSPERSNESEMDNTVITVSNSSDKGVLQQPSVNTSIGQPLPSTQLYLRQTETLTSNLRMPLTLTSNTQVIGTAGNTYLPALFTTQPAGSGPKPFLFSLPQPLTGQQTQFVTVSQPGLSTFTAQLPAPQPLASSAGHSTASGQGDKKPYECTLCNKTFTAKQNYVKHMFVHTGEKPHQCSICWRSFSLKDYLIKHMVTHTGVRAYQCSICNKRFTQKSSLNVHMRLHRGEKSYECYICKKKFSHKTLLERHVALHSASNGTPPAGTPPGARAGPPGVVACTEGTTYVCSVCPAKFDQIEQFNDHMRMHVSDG

[2] = target: T1, TurboID-Flag-ZBTB20; experiment: proximity labelling; chondrocytes transduced with Ad-TurboID-Fg-Zbtb20 (control Ad-TurboID-GFP), 50 μmol/L biotin 15 min 37°C, RIPA lysate, streptavidin magnetic beads, western blot of LATS1; without IL-1β

binding [2]: binds
B1: LATS1 (protein, UniProt Q8BYR2 1-1129)
chain: MKRGEKPEGYRQMRPKTFPASNYPGSSRQMLQEIRESLRNLSKPSDASKAEHNLNKMSTEDPRQVRNPPKFGTHHKALQEIRNSLLPFANETSSSRSPSEVNPQMFQDLQAAGFDEDMVIQALQKTNNRSIEAAVEFISKMSYQDPRREQMSAAAARPINATMKPGNVQHSINRKQSWKGSKESLVPQRHGPSLGENVVYRSESPNSQADVGRPLSGSGIAAFAQAHPSNGQRVNPPPPPQVRSVTPPPPPRGQTPPPRGTTPPPPSWEPSSQTKRYSGNMEYVISRISPVPPGAWQEGYPPPPLTTSPMNPPSQAQRAISSVPVGRQPIIMQSTSKFNFTPGRPGVQNGGGQSDFIVHQNVPTGSVTRQPPPPYPLTPANGQSPSALQTGASAAPPSFANGNVPQSMMVPNRNSHNMELYNINVPGLQTAWPQSSSAPAQSSPSGGHEIPTWQPNIPVRSNSFNNPLGSRASHSANSQPSATTVTAITPAPIQQPVKSMRVLKPELQTALAPTHPSWMPQPVQTVQPTPFSEGTASSVPVIPPVAEAPSYQGPPPPYPKHLLHQNPSVPPYESVSKPCKDEQPSLPKEDDSEKSADSGDSGDKEKKQITTSPITVRKNKKDEERRESRIQSYSPQAFKFFMEQHVENVLKSHQQRLHRKKQLENEMMRVGLSQDAQDQMRKMLCQKESNYIRLKRAKMDKSMFVKIKTLGIGAFGEVCLARKVDTKALYATKTLRKKDVLLRNQVAHVKAERDILAEADNEWVVRLYYSFQDKDNLYFVMDYIPGGDMMSLLIRMGIFPENLARFYIAELTCAVESVHKMGFIHRDIKPDNILIDRDGHIKLTDFGLCTGFRWTHDSKYYQSGDHPRQDSMDFSNEWGDPSNCRCGDRLKPLERRAARQHQRCLAHSLVGTPNYIAPEVLLRTGYTQLCDWWSVGVILFEMLVGQPPFLAQTPLETQMKVINWQTSLHIPPQAKLSPEASDLIIKLCRGPEDRLGKNGADEIKAHPFFKTIDFSSDLRQQSASYIPKITHPTDTSNFDPVDPDKLWSDGSEEENISDTLNGWYKNGKHPEHAFYEFTFRRFFDDNGYPYNYPKPIEYEYIHSQGSEQQSDEDDQHTSSDGNNRDLVYV
binding [1]: no binding (only cells treated with IL-1β)
